These are yes or no findings as the source states them, for the method shown. Some binding calls cover weakened binding; strength is not graded here.
Legend:
[1] = biological target: LONG HYPOCOTYL IN FR 1 (HFR1) of Arabidopsis thaliana (Arabidopsis thaliana) (UniProt Q9FE22); experiment: two-hybrid
[2] = biological target: T1, PHYTOCHROME … FACTOR 7 (PIF7) of Arabidopsis thaliana (Arabidopsis thaliana) (UniProt Q570R7); experiment: two-hybrid
T1 sequence: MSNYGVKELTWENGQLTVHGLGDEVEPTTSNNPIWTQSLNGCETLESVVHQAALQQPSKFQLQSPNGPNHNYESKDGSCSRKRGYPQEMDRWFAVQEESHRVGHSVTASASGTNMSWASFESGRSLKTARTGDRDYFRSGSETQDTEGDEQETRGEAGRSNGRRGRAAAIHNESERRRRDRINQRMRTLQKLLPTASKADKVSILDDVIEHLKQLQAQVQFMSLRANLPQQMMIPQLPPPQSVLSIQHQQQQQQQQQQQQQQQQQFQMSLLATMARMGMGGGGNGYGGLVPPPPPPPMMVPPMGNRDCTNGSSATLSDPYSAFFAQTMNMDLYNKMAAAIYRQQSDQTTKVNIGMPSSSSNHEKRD

binding [1]: binds | binding [2]: binds
B1: LONG HYPOCOTYL IN FR 1 (HFR1) of Arabidopsis thaliana (protein, UniProt Q9FE22 1-292)
chain: MSNNQAFMELGWRNDVGSLAVKDQGMMSERARSDEDRLINGLKWGYGYFDHDQTDNYLQIVPEIHKEVENAKEDLLVVVPDEHSETDDHHHIKDFSERSDHRFYLRNKHENPKKRRIQVLSSDDESEEFTREVPSVTRKGSKRRRRDEKMSNKMRKLQQLVPNCHKTDKVSVLDKTIEYMKNLQLQLQMMSTVGVNPYFLPATLGFGMHNHMLTAMASAHGLNPANHMMPSPLIPALNWPLPPFTNISFPHSSSQSLFLTTSSPASSPQSLHGLVPYFPSFLDFSSHAMRRL
